Results from paper PMC8202955, “The nonreceptor tyrosine kinase SRMS inhibits autophagy and promotes tumor growth by phosphorylating the scaffolding protein FKBP51” (PLoS Biology, 2021).
No constants are given. Whether binding was seen depends on the method and setting. Binding seen in cells or lysates may run through a third protein. Here binding means that the protein was enriched with, or labelled near, the bait; the list need not be complete.

Protein sequences, listed by entry. Tags and fused reporters are not part of them. Lines headed by an entry give the natural chain unless they say otherwise; changes in a name come on top.
UniProt Q9H3Y6: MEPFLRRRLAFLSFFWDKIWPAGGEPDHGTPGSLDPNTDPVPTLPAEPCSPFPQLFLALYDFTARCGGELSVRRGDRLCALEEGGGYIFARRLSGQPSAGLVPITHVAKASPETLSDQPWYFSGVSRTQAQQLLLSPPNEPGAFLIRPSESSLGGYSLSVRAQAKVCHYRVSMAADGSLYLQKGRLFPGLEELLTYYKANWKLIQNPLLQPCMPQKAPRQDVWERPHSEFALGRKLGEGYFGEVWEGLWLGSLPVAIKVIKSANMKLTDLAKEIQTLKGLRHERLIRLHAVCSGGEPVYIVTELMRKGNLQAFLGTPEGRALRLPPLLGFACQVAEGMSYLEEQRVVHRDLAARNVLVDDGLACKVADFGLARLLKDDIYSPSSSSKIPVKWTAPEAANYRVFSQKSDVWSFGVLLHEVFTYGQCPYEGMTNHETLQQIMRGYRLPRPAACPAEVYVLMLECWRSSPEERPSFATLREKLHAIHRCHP

Molecular target: 3xFLAG-SRMS K258A (human) (UniProt Q9H3Y6)
Assay: affinity purification with mass spectrometry; anti-FLAG beads on lysates of HEK293 cells expressing Flag-tagged SRMS (50 mM Tris pH 7.4, 150 mM NaCl, 1 mM EDTA, 1% Triton X-100), 4 h at 4 C, eluted with FLAG peptide, SDS-PAGE, mass spectrometry ('substrate trapping')

binding: binds
B1: FK506-binding protein 51 (endogenous) (protein, UniProt Q13451 1-457)
chain: MTTDEGAKNNEESPTATVAEQGEDITSKKDRGVLKIVKRVGNGEETPMIGDKVYVHYKGKLSNGKKFDSSHDRNEPFVFSLGKGQVIKAWDIGVATMKKGEICHLLCKPEYAYGSAGSLPKIPSNATLFFEIELLDFKGEDLFEDGGIIRRTKRKGEGYSNPNEGATVEIHLEGRCGGRMFDCRDVAFTVGEGEDHDIPIGIDKALEKMQREEQCILYLGPRYGFGEAGKPKFGIEPNAELIYEVTLKSFEKAKESWEMDTKEKLEQAAIVKEKGTVYFKGGKYMQAVIQYGKIVSWLEMEYGLSEKESKASESFLLAAFLNLAMCYLKLREYTKAVECCDKALGLDSANEKGLYRRGEAQLLMNEFESAKGDFEKVLEVNPQNKAARLQISMCQKKAKEHNERDRRIYANMFKKFAEQDAKEEANKAMGKKTSEGVTNEKGTDSQAMEEEKPEGHV
